Reference: patent US4720506A, “Immunomodulating agent” (Nippon Shinyaku Company, Limited, priority 1982, dated 1988)
At least one compound was matched to its structure with a doubt left.

Tested on: Rats Adjuvant Arthritis
Test: Rats adjuvant arthritis
Assay type: in vivo, Sprague Dawley male rats
Conditions: oral, 1 mg/kg-125 mg/kg, 27 days

CC(=O)Nc1ccc(CC(=O)O)cc1 [Compound 10, 4-Acetylaminophenylacetate]
inhibitory activity to secondary inflammation: inhibitory activity especially at a low dose
inhibitory activity to the primary inflammation due to the direct action of the adjuvant: very slight
